Results reported in publication PMC10319584.
No constants are given. Whether binding was seen depends on the method and setting. Binding seen in cells or lysates may run through a third protein. Some binding calls cover weakened binding; strength is not graded here. For some assays here: Where a sequence is shown, tags or fusion partners need not be part of it.

How the values were obtained:
[1] = molecular target: T1, Fra-1-D2 (1-127 aa) (UniProt P15407); experiment: co-IP; SGC7901 cells expressing full length Fra-1 or HA-tagged D1, D2, D3; IP-HA; western blot
T1 sequence: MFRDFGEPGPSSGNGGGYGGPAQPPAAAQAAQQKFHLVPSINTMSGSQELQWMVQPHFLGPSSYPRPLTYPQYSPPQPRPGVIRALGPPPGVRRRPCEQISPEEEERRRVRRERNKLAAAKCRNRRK

[2] = molecular target: T2, Fra-1-FL (full length Fra-1 of the domain-mapping IP) (UniProt P15407); experiment: as above
T2 sequence: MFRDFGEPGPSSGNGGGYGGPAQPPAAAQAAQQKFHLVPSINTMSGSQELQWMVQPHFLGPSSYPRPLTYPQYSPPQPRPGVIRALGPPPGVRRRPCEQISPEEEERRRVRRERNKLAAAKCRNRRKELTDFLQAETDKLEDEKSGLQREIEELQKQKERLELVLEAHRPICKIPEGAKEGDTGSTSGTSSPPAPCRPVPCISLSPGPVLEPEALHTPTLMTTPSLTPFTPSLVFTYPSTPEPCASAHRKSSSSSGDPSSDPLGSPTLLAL

[3] = molecular target: T3, Fra-1-D1 (1-107 aa) (UniProt P15407); experiment: as above
T3 sequence: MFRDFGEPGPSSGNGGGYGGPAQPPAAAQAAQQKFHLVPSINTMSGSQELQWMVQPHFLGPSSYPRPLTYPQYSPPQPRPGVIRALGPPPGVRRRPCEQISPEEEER

[4] = molecular target: T4, Fra-1-D3 (107-271 aa) (UniProt P15407); experiment: as above
T4 sequence: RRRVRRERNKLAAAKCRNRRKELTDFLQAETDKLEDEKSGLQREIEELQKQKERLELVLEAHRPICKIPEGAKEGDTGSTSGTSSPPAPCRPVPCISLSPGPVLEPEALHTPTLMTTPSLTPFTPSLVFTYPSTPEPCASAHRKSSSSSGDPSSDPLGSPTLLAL

[5] = molecular target: T5, FLAG-Fra-1 (Fos-related antigen 1) (UniProt P15407); experiment: co-IP; SGC7901 cell lysate, IP lysis buffer, protein A+G beads, 4°C overnight; FLAG lane (proteins binding to Fra-1) against IgG lane; western blot for 14-3-3 family members
T5 sequence: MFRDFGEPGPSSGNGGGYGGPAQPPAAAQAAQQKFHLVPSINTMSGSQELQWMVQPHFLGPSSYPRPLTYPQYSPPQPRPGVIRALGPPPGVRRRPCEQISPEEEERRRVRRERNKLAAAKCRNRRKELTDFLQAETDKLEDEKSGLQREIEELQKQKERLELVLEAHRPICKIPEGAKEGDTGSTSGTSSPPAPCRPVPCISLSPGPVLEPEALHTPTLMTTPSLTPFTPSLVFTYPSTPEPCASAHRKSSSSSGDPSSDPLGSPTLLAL

Measured: binding

B1: tyrosine 3-monooxygenase/tryptophan 5-monooxygenase activation protein eta (YWHAH) (protein, UniProt Q04917 1-246)
chain: MGDREQLLQRARLAEQAERYDDMASAMKAVTELNEPLSNEDRNLLSVAYKNVVGARRSSWRVISSIEQKTMADGNEKKLEKVKAYREKIEKELETVCNDVLSLLDKFLIKNCNDFQYESKVFYLKMKGDYYRYLAEVASGEKKNSVVEASEAAYKEAFEISKEQMQPTHPIRLGLALNFSVFYYEIQNAPEQACLLAKQAFDDAIAELDTLNEDSYKDSTLIMQLLRDNLTLWTSDQQDEEAGEGN
binds: all assays above
